Our source for the binding values is paper PMC7933964.

Chains of the proteins cited; added tags and fusions are not shown.
UniProt Q61696: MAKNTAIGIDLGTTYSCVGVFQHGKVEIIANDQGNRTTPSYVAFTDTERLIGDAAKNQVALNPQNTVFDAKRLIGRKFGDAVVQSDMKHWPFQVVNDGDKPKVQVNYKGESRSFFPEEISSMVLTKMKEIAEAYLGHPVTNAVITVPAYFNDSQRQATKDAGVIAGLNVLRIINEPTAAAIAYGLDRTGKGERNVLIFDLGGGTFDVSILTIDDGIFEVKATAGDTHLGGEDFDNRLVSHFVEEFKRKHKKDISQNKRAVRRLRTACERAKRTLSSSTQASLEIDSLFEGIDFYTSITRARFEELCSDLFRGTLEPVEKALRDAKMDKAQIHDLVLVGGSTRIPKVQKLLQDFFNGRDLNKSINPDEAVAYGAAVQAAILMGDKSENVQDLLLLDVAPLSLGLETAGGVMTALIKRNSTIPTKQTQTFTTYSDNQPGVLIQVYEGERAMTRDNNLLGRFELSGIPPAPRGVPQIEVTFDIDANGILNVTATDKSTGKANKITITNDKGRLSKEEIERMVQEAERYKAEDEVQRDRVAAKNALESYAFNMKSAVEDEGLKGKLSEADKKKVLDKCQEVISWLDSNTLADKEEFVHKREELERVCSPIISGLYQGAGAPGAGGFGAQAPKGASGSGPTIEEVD

In assay [1] the target is T1, Testicular receptor 4 (UniProt P49117).
T1 sequence: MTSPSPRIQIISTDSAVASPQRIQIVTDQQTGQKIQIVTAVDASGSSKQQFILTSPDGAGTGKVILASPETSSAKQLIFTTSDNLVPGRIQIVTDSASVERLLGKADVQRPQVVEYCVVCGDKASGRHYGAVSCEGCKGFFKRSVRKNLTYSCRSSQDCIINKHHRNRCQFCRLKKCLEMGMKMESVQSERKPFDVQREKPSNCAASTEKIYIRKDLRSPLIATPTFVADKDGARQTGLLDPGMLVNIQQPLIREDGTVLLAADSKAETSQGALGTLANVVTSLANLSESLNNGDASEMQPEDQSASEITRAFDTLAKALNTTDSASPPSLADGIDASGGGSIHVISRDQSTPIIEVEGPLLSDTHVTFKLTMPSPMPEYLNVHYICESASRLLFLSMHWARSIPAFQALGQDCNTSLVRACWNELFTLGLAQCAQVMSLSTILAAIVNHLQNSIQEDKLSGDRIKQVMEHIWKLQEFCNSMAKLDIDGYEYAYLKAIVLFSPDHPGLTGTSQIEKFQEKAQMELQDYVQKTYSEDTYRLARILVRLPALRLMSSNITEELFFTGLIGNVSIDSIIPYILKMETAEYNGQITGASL
Kind of assay: affinity purification with mass spectrometry; immunoprecipitation of TR4 combined with LC-MS/MS; cells treated with and without bexarotene; no methods given.

For assay [2], the target named is T1, Testicular receptor 4. Kind of assay: affinity purification with mass spectrometry; immunoprecipitation of TR4 combined with LC-MS/MS; the sample of cells not treated with bexarotene; no methods given.

These are yes or no findings as the source states them, for the method shown. In cells and extracts the contact can be indirect. A yes stands for co-enrichment or nearness to the bait. Other partners may have been found. For some assays here: No binding means not detected with the bait.

Regarding “heat shock 70 kD protein 1A (from UniProt Q61696 1-641)”, the binding result with Testicular receptor 4 [1] is on record as “binds”; with Testicular receptor 4 [2] it was “no binding (only cells without bexarotene)”.
